# Measured values taken from US20040096954A1.
# Chains of the proteins cited; added tags and fusions are not shown. Lines headed by an entry give the natural chain unless they say otherwise; changes in a name come on top. Residues count along the entry.
# UniProt Q92783, residues 210-269: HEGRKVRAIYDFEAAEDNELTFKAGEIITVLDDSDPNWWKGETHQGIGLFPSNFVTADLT
# No constants are given. Whether binding was seen depends on the method and setting. Some entries that bind do so weakly or less than the wild type.
# Biological target: T1, human protein hAMSH (human) (UniProt O95630)
# T1 sequence: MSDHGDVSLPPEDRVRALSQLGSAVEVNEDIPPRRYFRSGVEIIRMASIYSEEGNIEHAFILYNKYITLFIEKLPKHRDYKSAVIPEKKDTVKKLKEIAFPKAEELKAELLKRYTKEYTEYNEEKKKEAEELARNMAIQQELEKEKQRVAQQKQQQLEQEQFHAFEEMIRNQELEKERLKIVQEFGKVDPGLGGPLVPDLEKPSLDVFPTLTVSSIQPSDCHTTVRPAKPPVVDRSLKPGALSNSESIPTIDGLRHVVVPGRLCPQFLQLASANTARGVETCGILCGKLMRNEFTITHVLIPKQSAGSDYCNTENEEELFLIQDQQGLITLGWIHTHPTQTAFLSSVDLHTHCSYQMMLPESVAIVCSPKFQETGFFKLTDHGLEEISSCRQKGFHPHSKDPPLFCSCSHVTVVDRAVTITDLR
# Assay: Far-Western screen of a human cDNA expression library with the GST-STAM SH3 probe
substance,measurement,value
chimera of the SH3 domain of STAM and glutathione-S-transferase (GST) (from UniProt Q92783 210-269),binding,binds
